{"source": "patent US20240251802A1", "about": "“USE OF SATIVENE, AND RECOMBINANT BIOCONTROL FUNGUS AND MUSCARDINE CADAVER AND USE THEREOF” (priority 2022, published 2024)", "system": "Drosophila larvae", "assay": "Two-way choice method, attraction of Drosophila larvae", "format": "in vivo", "details": "content gradients 10^−5 g to 10^−11 g on filter paper vs n-hexane control, FIG. 2A/2B", "procedure": "Two-way choice method was used to detect the attraction of Galleria mellonella muscardine cadavers to Drosophila healthy larvae, with the device shown in FIG. 1A. New freezing-killed Galleria mellonella larvae were kept at a room temperature for 20 min(control) and one of the resulting Galleria mellonella muscardine cadaver was placed on both sides of a 9 cm petri dish (containing 2% water agar), and then 20 healthy 3-instar Canton-S Drosophila larvae were placed in the middle part of the petri dish. After 10 min, photographing was conducted to record the selection of Drosophila larvae, and a Response index was calculated [the Response index=(the number of Drosophila larvae selecting Galleria mellonella muscardine cadaver−the number of Drosophila larvae selecting control Galleria mellonella larvae)/the total number of Drosophila larvae (20)]. The experiment was repeated 6 times.\nThe muscardine cadaver was replaced by circular filter paper with a 5 mm diameter (containing 10 μl of different concentrations solutions of longifolene or sativene), and a control was a filter paper containing 10 μl of n-hexane solvent. Similarly, the method for detecting the attraction of muscardine cadavers to Galleria mellonella larvae and mosquitoes adults was also used to analyze the attraction of longifolene and sativene to these two kinds of insects. […]", "note": "Some of these results come from one statement about several compounds together."}
{"compound": "C=C1[C@H]2CC[C@@H]3[C@H]2C(C)(C)CCC[C@]13C", "note": "[longifolene]", "values": [{"measurement": "lowest level to which Drosophila larvae respond", "value": "≤ 10^−11 g"}]}
